# Hit rate of the full screen: of about 340,000 compounds, about 170 (0.05%) were called active. This list was built around the results that the source calls inconclusive (neither active nor inactive); the mix of calls is not that of the screen. Calls come from the whole dose curve; as a rule, active = well fitted inhibition curve with a large enough effect in the signal ratio, with a control signal flat (not every such curve was filed as active); inconclusive = small, poorly fitted or top-dose-only effect, or effect the other way, or a change in a side signal; inactive = flat fitted curve, though single readings scatter; the % refers to the signal ratio. Where the call is inconclusive, the potency comes from a doubtful curve fit.
# Assay: qHTS Assay to Find Inhibitors of Chronic Active B-Cell Receptor Signaling;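 for activity change, negative = inhibition: plate controls were basal doxycycline-induced cells for no effect and cells given 10 µM MG132 for full effect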
# Settings: ABC-DLBCL IkBa-CBG/CBR reporter, luminescence ratio (green luciferase fused to IkBa over red control in TMD8 lymphoma cells), 4 h; activity change, negative = inhibition: at 46.1 µM (top of the series)
# In short: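 Compounds up to 46 uM were incubated four hours with TMD8 cells whose green CBG68 luciferase is fused to IkappaBalpha; red CBR luminescence normalised the signal, and concentration-effect curves were fitted to fusion, red and ratio data.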
# Potency is the fitted concentration of half-maximal effect.
Compound,"activity change, negative = inhibition",Potency
Cc1[nH]c(SCC(=O)c2c(N)n(C)c(=O)n(C)c2=O)nc1Cc1ccccc1,inconclusive: 1.33%,–
Cc1ccccc1NC(=O)Nc1ccc(C(F)(F)F)cc1,–,"inconclusive: 11.2 µM [falling, partial curve]"
CCCCc1c(C(=O)O)cc(OC)cc1C(=O)O,inconclusive: 2.1%,–
Cc1ccc(C(=O)N/C(=C/c2cccs2)C(=O)N2CCCCC2)cc1,–,"inconclusive: 20 µM [falling, single point]"
CCOC(=O)c1nnn(-c2nonc2N)c1CN1CCc2ccccc2C1,inconclusive: -8.75%,–
CCOc1ccc(NC(=O)c2c(NCc3ccc(C)o3)sc3c2CCC(C)C3)cc1 (stereo not drawn),–,"inconclusive: 25.1 µM [falling, single point]"
Cc1nnc(NC(=O)Cc2ccc(OCc3c(C)noc3C)cc2)s1,inconclusive: -5.07%,–
C[C@@H]1OC(Nc2ccc(N=Nc3ccccc3)cc2)[C@H](O)[C@H](O)[C@H]1O (stereo partly drawn),–,"inconclusive: 11.2 µM [falling, partial curve]"
O=c1c2ccccc2c(C=NCCCN2CCOCC2)c(O)n1Cc1ccc2c(c1)OCO2,inconclusive: -0.0509%,–
Cn1c(C(=O)NCCCN2CCN(c3ccccc3F)CC2)cc2c(=O)[nH]c3ccccc3c21,inactive: 0.171%,–
Cc1c(C(=O)Nc2ccc(S(=O)(=O)Nc3ncccn3)cc2)oc2ccc(F)cc12,inconclusive: 3.43%,–
O=C(CSc1nc2ccccc2[nH]1)c1c[nH]c2ccccc12,inconclusive: -17.8%,–
COc1ccc2[nH]c3c(c2c1)CCN1C(=O)C(CC(=O)NCc2ccco2)C[C@H](C(=O)N2CCCCC2)[C@@]31CCc1ccccc1 (stereo partly drawn),inactive: 1.63%,–
CCCC(=O)c1cn(CC(=O)OC)c2ccccc12,inconclusive: 4.04%,–
CCN(CC)c1ccc2cc(NC(=O)CCC(=O)O)c(=O)oc2c1,–,"inconclusive: 1.16 µM [rising, full curve, poor fit]"
CCN(CC)S(=O)(=O)c1cc(C(=O)OC)ccc1Cl,inconclusive: -2.33%,–
Cc1ccc(-c2cc(C(F)(F)F)n3ncc(C(=O)N4CCN(C)CC4)c3n2)cc1,inconclusive: 0.761%,–
Cn1nc(C(F)(F)F)c(C(=O)Nc2ccc(F)cc2F)c1Sc1ccc(Cl)cc1,inconclusive: 23.5%,–
Cc1ccc(/C=N/NC(=O)c2cccc3ccccc23)o1,–,"inconclusive: 14.1 µM [falling, partial curve, poor fit]"
Cc1ccc(Cn2nnc3c(=O)[nH]c(C4CCN(S(=O)(=O)c5ccc(S(=O)(=O)NC6CC6)cc5)CC4)nc32)cc1,inconclusive: 17.3%,–
C#CC(=O)N(c1ccc(OC)c(OC)c1)C(C(=O)NC1CCCC1)c1cccs1 (stereo not drawn),–,"inconclusive: 16.4 µM [falling, single point]"
Cc1cccc(C2c3[nH]c4ccccc4c3CCN2C(=O)Cc2n[nH]c(C)n2)n1 (stereo not drawn),inconclusive: -1.86%,–
CC(C)[C@H](NC(=O)NCc1ccc(F)cc1)C(=O)O,inactive: -4.78%,–
COc1ccc(CN2CN(c3ccc(Cl)cc3)C(=O)N(n3cnnc3)C2)cc1,inactive: -23.9%,–
CS(=O)(=O)NCCOc1ccc(S(=O)(=O)NCCOc2ccccc2)cc1,inconclusive: -0.543%,–
O=C(CN(Cc1ccc(Cl)cc1)C(=O)CNS(=O)(=O)c1ccccc1)NCC1CCCO1 (stereo not drawn),inactive: -0.747%,–

Compound,"activity change, negative = inhibition",Potency
O=C(CSc1nnc(-c2cc3ccccc3cc2O)n1Cc1ccco1)c1ccc(F)cc1,–,"inconclusive: 35.5 µM [falling, single point]"
COc1cccc(NC(=O)CSc2nc3ccccc3n2C)c1,inconclusive: -3.63%,–
N#CCC(=O)N/N=C/c1cccc(Oc2ccccc2)c1,inactive: -3.15%,–
Brc1ccc(-c2csc(-c3ccncc3)n2)cc1,inconclusive: 5.28%,–
CCCS(=O)(=O)Nc1ccc(-c2ccc3nnc(C)n3n2)cc1,–,"inconclusive: 35.5 µM [falling, single point]"
O=C(N/N=C\C=C\c1ccc([N+](=O)[O-])o1)c1cccs1,–,"inconclusive: 22.4 µM [falling, single point]"
CC(=O)n1c(C=Nc2ccccc2)c(O)c2ccccc21,–,"inconclusive: 4.47 µM [falling, full curve, poor fit]"
COc1cccc(-n2cc3c(c2-c2ccccc2)c(=O)n(C)c(=O)n3C)c1,inconclusive: -0.494%,–
COC(=O)c1cc(=O)n(C2CC2)c(=NC2CC2)s1,inconclusive: -4.98%,–
CCC(=O)/C=C1/Sc2ccc(OC)cc2N1CC,–,"inconclusive: 6.31 µM [falling, partial curve, poor fit]"
CCN(CC)CCNc1nc(-c2ccco2)c2c(c1C#N)CC(C)(C)OC2,inconclusive: 1.44%,–
O=C(C1=NN[C@@H]2C(=O)N(c3cccc(F)c3)C(=O)[C@H]12)c1ccc2ccccc2n1,inconclusive: -23.8%,–
CSC1=NSC2=NC(=O)/C(=C\c3ccc(OC(=O)c4ccco4)cc3)C(=N)N12,inconclusive: -9.57%,–
COc1ccc(NC(=O)COc2ccc(/C=C/c3cccc[n+]3C)cc2OC)cc1,inactive: 0.0898%,–
OC1CCN(CC(O)C(F)(F)F)CC1 (stereo not drawn),inactive: -0.527%,–
Cc1ccc(Nc2c(N)c(=O)oc3ccccc23)cc1,–,"inconclusive: 2.91 µM [rising, partial curve, poor fit]"
COc1ccc2c(c1)C(=O)N1[C@H]3c4cc(OC)ccc4OC[C@@H]3[C@H](c3ccccc3)[C@]1(C)C(=O)N2,inconclusive: 6.41%,–
COc1ccc(C)cc1S(=O)(=O)Nc1cc2c3c(c1)CCN3C(=O)CC2,inconclusive: 3.23%,–
Cc1ccc(-n2ncc3c(NCCCn4ccnc4)ncnc32)cc1Cl,inconclusive: -3.93%,–
CC(C)CC(COCc1cccc(Cl)c1)N1CCN(C(=O)c2ccc(C(F)(F)F)cc2)CCC1=O (stereo not drawn),–,"inconclusive: 29.1 µM [falling, single point]"
Cc1ccc(-c2nc3nc4ccccc4nc3n2Cc2ccco2)cc1,–,"inconclusive: 18.4 µM [falling, partial curve]"
CCNS(=O)(=O)c1cccc(C(=O)c2c(C)cc3ccccn23)c1,inactive: -12.6%,–
C=CCOc1ccc2cccc(/C=N/NC(=O)c3cc4cc([N+](=O)[O-])ccc4s3)c2c1,inactive: 7.1%,–
C#CCSc1nnc(-c2sc3ccccc3c2Cl)o1,inconclusive: 3.14%,–
CNNC(=S)Nc1cccc(C(F)(F)F)c1,inconclusive: -2.47%,–
COc1cccc(CN2CCN(Cc3cccc(Oc4ccccc4)c3)CC2)c1OC,inconclusive: -12.1%,–

# 20 entries already listed, sorted by SMILES length, low to high:
Compound,"activity change, negative = inhibition",Potency
OC1CCN(CC(O)C(F)(F)F)CC1 (stereo not drawn),inactive: -0.527%,–
CNNC(=S)Nc1cccc(C(F)(F)F)c1,inconclusive: -2.47%,–
CCC(=O)/C=C1/Sc2ccc(OC)cc2N1CC,–,"inconclusive: 6.31 µM [falling, partial curve, poor fit]"
CCCC(=O)c1cn(CC(=O)OC)c2ccccc12,inconclusive: 4.04%,–
COc1cccc(NC(=O)CSc2nc3ccccc3n2C)c1,inconclusive: -3.63%,–
Cc1ccc(/C=N/NC(=O)c2cccc3ccccc23)o1,–,"inconclusive: 14.1 µM [falling, partial curve, poor fit]"
CC(C)[C@H](NC(=O)NCc1ccc(F)cc1)C(=O)O,inactive: -4.78%,–
Cc1ccc(-n2ncc3c(NCCCn4ccnc4)ncnc32)cc1Cl,inconclusive: -3.93%,–
CCN(CC)c1ccc2cc(NC(=O)CCC(=O)O)c(=O)oc2c1,–,"inconclusive: 1.16 µM [rising, full curve, poor fit]"
O=C(N/N=C\C=C\c1ccc([N+](=O)[O-])o1)c1cccs1,–,"inconclusive: 22.4 µM [falling, single point]"
COc1cccc(CN2CCN(Cc3cccc(Oc4ccccc4)c3)CC2)c1OC,inconclusive: -12.1%,–
COc1ccc(CN2CN(c3ccc(Cl)cc3)C(=O)N(n3cnnc3)C2)cc1,inactive: -23.9%,–
COc1ccc(NC(=O)COc2ccc(/C=C/c3cccc[n+]3C)cc2OC)cc1,inactive: 0.0898%,–
O=c1c2ccccc2c(C=NCCCN2CCOCC2)c(O)n1Cc1ccc2c(c1)OCO2,inconclusive: -0.0509%,–
Cc1cccc(C2c3[nH]c4ccccc4c3CCN2C(=O)Cc2n[nH]c(C)n2)n1 (stereo not drawn),inconclusive: -1.86%,–
Cc1ccc(-c2cc(C(F)(F)F)n3ncc(C(=O)N4CCN(C)CC4)c3n2)cc1,inconclusive: 0.761%,–
Cn1c(C(=O)NCCCN2CCN(c3ccccc3F)CC2)cc2c(=O)[nH]c3ccccc3c21,inactive: 0.171%,–
C=CCOc1ccc2cccc(/C=N/NC(=O)c3cc4cc([N+](=O)[O-])ccc4s3)c2c1,inactive: 7.1%,–
Cc1ccc(Cn2nnc3c(=O)[nH]c(C4CCN(S(=O)(=O)c5ccc(S(=O)(=O)NC6CC6)cc5)CC4)nc32)cc1,inconclusive: 17.3%,–
COc1ccc2[nH]c3c(c2c1)CCN1C(=O)C(CC(=O)NCc2ccco2)C[C@H](C(=O)N2CCCCC2)[C@@]31CCc1ccccc1 (stereo partly drawn),inactive: 1.63%,–

# Going on with the list.

Compound,"activity change, negative = inhibition",Potency
Nc1ccc2oc(-c3ccc4nc[nH]c4c3)nc2c1,–,"inconclusive: 16.4 µM [falling, partial curve, poor fit]"
O=C(Cc1ccc(F)cc1)NCc1cccnc1,inconclusive: -1.14%,–
Cc1ccc(-n2c(C)c(C)c3c(NCCN(C)C)ncnc32)cc1,inconclusive: 5.25%,–
c1ccc(-c2cn3nc(-c4ccccc4)c(-c4ccccc4)nc3n2)cc1,inconclusive: 16.1%,–
Cc1cccc(NC(=O)CN2CCc3cc4c(cc3C2)OCCCO4)c1,inconclusive: -14.2%,–
CC(C)(C)Nc1nc(Nc2ccc([N+](=O)[O-])cc2)nc(NC(C)(C)C)n1,inactive: 3.51%,–
Nc1cc(=O)[nH]c(SCc2ccc(Cl)cc2Cl)n1,inactive: -1.18%,–
O=C(NCC1CCCO1)c1onc(CSc2ccc(F)cc2)c1C(=O)O (stereo not drawn),–,"inconclusive: 20 µM [falling, partial curve, poor fit]"
CCc1cc(C(=O)c2ccc(OC)cc2)c(NC(=O)COCC(=O)O)s1,inconclusive: -5.77%,–
CCOc1ccc(C2NC(=O)C(C#N)=C(S)N2c2ccc(OC)cc2)cc1OC (stereo not drawn),–,"inconclusive: 22.4 µM [cytotoxic, partial curve]"
CCOC(=O)C1=C(C)NC(C)=C(C(=O)OCC)C1c1cc2ccc(C)cc2[nH]c1=O,inconclusive: -13.8%,–
CC(=C\c1ccco1)/C=C1/SC(=S)N(CC(=O)O)C1=O,inconclusive: 1.24%,–
Cc1ccc(S(=O)(=O)Nc2cccc(C(=O)N3CCC(C(N)=O)CC3)c2)cc1,inactive: -0.999%,–
O=C(Cn1[nH]c(=O)c2ccccc2c1=O)Nc1ccc(-c2nnc3n2CCCCC3)cc1,–,"inconclusive: 25.9 µM [falling, single point]"
CCOc1cc2[nH]c(=S)n(C3CC3)c(=O)c2cc1OCC,inconclusive: 11.7%,–
CCN1C(=O)[C@H]2[C@@H](c3ccc(-c4ccc(F)cc4)c(OC)c3)N3CCCC[C@@]3(C(=O)OC)[C@H]2C1=O,inconclusive: 4.48%,–
N#Cc1nc(Cc2ccccc2)oc1NCc1ccccc1Cl,inconclusive: -0.649%,–
O=C(/C=C/c1ccccc1)Nc1cccc(S(=O)(=O)Nc2ccccc2F)c1,inconclusive: -7.44%,–
Cc1ccnn1CC(=O)N/N=C/c1ccc([N+](=O)[O-])s1,inactive: 8.37%,–
O=C(CN1C2CCCC1CC(NC(=O)c1ccccc1)C2)Nc1ccccc1C(F)(F)F (stereo not drawn),inconclusive: -0.025%,–
COc1cc(/C=N/n2nnnc2N)ccc1OCc1c(C)no[n+]1[O-],inconclusive: -0.127%,–
O=C(NCCOCc1ccc(Cl)cc1)c1ncn[nH]1,inconclusive: -0.372%,–
N#CC1(c2ccc(NC(=O)c3ccccc3F)cc2)CCCC1,–,"inconclusive: 23.1 µM [falling, single point]"
CC(C)(C)OC(=O)C(C(=O)OC(C)(C)C)c1ccc(Cl)nn1,inconclusive: 11.8%,–
CCCCOc1ccc2c(c1)C(=O)c1cc(O)ccc1-2,–,"inconclusive: 5.62 µM [rising, partial curve, poor fit]"
CC(Oc1ccccc1)C(=O)Nc1ccccc1O (stereo not drawn),inconclusive: 5.75%,–

# Source: PubChem BioAssay AID493014 (National Center for Advancing Translational Sciences (NCATS), 2011)
